Laboratory results: PubChem BioAssay AID652272 (Drosophila RNAi Screening Center, 2013)
The screen tested about 21,000 reagents; shown is a random part of those that have a named target and a result. Over the whole deposit, 503 (2.4%) were called active. 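Raw plate light values, not normalised; calls rest on replicate z-scores that were not deposited; hits include reporter decreases as well as increases.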 Entries without a mark were called inactive. A plus sign joins genes that one reagent is predicted to hit. The record does not give: the amount of reagent, the time to read-out.

- Assay: 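Genome-wide knock-down search for components of Hedgehog signalling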 (primary screen)
- Cells: Drosophila clone 8 (Cl8) cells
- Knock-down reagent: long dsRNA against Drosophila genes
- Detection: 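Plate reader light from a firefly reporter under a ptc promoter fragment that responds to Hedgehog, with Renilla light as transfection reference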
- Reading the numbers: firefly Hh reporter signal: higher = more ptc reporter light; Renilla reference signal: higher = more Renilla control light
- Hit rule: 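Hit when the z-score averaged over two replicates is under -2 or over +3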
- Calls: active = hit: reporter lowered or raised; inactive = not a hit

target,dsRNA,"firefly Hh reporter signal, replicate 1","firefly Hh reporter signal, replicate 2","firefly Hh reporter signal, replicate 3","Renilla reference signal, replicate 1","Renilla reference signal, replicate 2"
Tb,DRSC15815,88309,94055,,2443,2805
CG11504,DRSC14318,90576,81410,,2144,2435
CG15020,DRSC08474,39561,37772,,4918,3557
CG13045,DRSC09926,88055,,,4738,2586
CG33160,DRSC08197,87277,32384,,3315,2811
CalpC,DRSC19873,66764,1.80e5,,2609,7290
PH4alphaMP,DRSC17031,74392,83194,,2856,2135
Eglp4,DRSC04438,78315,66445,,2091,6682
ttk,DRSC14078,4.58e5,1.97e5,,26761,3707
ttk,DRSC17091,85833,1.66e5,,1677,5414
mRpL46,DRSC08391,54757,36198,,1989,3181
Myo28B1,DRSC03375,2.10e5,80800,,4902,7226
Nepl16,DRSC14650,4.59e5,86041,,23835,2365
arm,DRSC18738,1.08e5,81223,,2933,3156
CG10936,DRSC05669,1.28e5,3.08e5,,3693,11088
CG10936,DRSC05670,98997,2.28e5,,3040,8208
CG10936,DRSC06018,65575,40869,,1712,2745
CG15406,DRSC00420,1.18e5,41105,,3170,4946
CG13603,DRSC14606,66154,71174,,3163,2971
CG7849,DRSC04895,91431,74829,,1586,6187
Osbp,DRSC16779,89729,86036,,3696,3304

Entries above whose target name begins with M or m (2):
target,dsRNA,"firefly Hh reporter signal, replicate 1","firefly Hh reporter signal, replicate 2","firefly Hh reporter signal, replicate 3","Renilla reference signal, replicate 1","Renilla reference signal, replicate 2"
mRpL46,DRSC08391,54757,36198,,1989,3181
Myo28B1,DRSC03375,2.10e5,80800,,4902,7226

Next results follow:
target,dsRNA,"firefly Hh reporter signal, replicate 1","firefly Hh reporter signal, replicate 2","firefly Hh reporter signal, replicate 3","Renilla reference signal, replicate 1","Renilla reference signal, replicate 2"
GABA-B-R2,DRSC14134,1.85e5,1.03e5,,7088,3980
P58IPK,DRSC16404,87944,87611,,3306,2539
Trs31,DRSC05975,1.04e5,97392,,4582,3804
nord,DRSC04210,78128,52168,,2144,4436
nord,DRSC04361,60988,34418,,2123,3543
l(2)k09913,DRSC04699,47697,40217,,2144,1889
scpr-A + scpr-C + scpr-B,DRSC15715,69288,1.34e5,,1339,3696
CG14453,DRSC11710,1.77e5,8.10e5,1.42e5,5190,6035
CG3149,DRSC17732,90715,88544,,2214,2341
mrt,DRSC15484,73731,97714,,2569,3559
CG13893,DRSC08363,67924,39684,,2315,3050
Lerp,DRSC14750,97266,85410,,3622,2618
Lerp,DRSC14751,1.25e5,1.41e5,,4709,4320
Lerp,DRSC16030,1.10e5,1.14e5,,4032,3408
Lerp,DRSC16031,96738,1.01e5,,4012,2960
mRpS34,DRSC09918,1.45e5,,,4835,3776
dsd,DRSC13829,48059,2.45e5,,12813,5337
dsd,DRSC15850,1.24e5,1.09e5,,3104,2621
